Data from patent US20200330447A1, “CANCER TREATMENT VIA REPOSITIONED TRICYCLIC ANTI-DEPRESSANT-LIKE DRUGS AS ANTI-CANCER AGENTS AND NEW COMBINATIONS OF SUCH DRUGS” (Board of Supervisors of Louisiana State University and …, priority 2015, published 2020).
For at least one compound, name, drawing or mass did not settle the structure.

System: DU145 prostate cancer cells
Test: High content imaging-based screen (Cellomics) for lysosome migration inhibitors
Type: cell-based
Details: pH 6.4 media, 2 micrograms per ml, 16 hours
Protocol: DEVELOPMENT OF A HIGH CONTENT IMAGING-BASED SCREEN: The followings process was followed to identify chemicals that were lysosome migration inhibitors. DU145 prostate cancer cells were seeded in 96 well flat bottom black walled plates at 4,500 cells per well. All compounds and controls were exposed to RPMI bicarbonate buffered media (pH 6.4). RPMI buffered media titrated at pH of 6.4-6.8 was added to column 12 after the media was removed and serves as negative control (low acidic pH so lysosomes move out). […] The 4 compound libraries chosen to screen were the NIH Clinical Collection (450 drugs), Prestwick (1200 drugs), Prestwick phytochemical and the Green Pharma collection (xx drugs). […] Plates were mounted and read in a Cellomics Arrayscan automated fluorescence imager. The Cellomics platform allows for high content throughput screening by combining fluorescence microscopy with a multi-parameter image analysis. […]
Z′-factor is a simple statistical coefficient used to assess performance and quality of the assay in high-throughput screening. It is calculated with the formula: Z′=1-(3σct+3σcb)/|μct−μcb|, where p indicates mean, a represents standard deviation, “ct” indicates the positive control, “cb” indicates the negative control. […]
The Z′ factor of the assay was determined from the EIPA (positive control) and low pH (negative control). […]

In the case of `O=c1c(O[C@@H]2O[C@H](CO)[C@@H](O)[C@H](O)[C@H]2O)c(-c2ccc(O)c(O)c2)oc2cc(O)cc(O)c12` [isoquercetin], the “hit in screen for lysosome migration inhibitors (mean ring spot count)” value is reported as “hit”.

`COc1ccc2cc1Oc1ccc(cc1)C[C@H]1c3cc(c(OC)cc3CCN1C)Oc1c(OC)c(OC)cc3c1[C@H](C2)N(C)CC3` [tetrandrine] was tested, and the “hit in screen for lysosome migration inhibitors (mean ring spot count)” value was “hit”.
